Data from the supplement of paper PMC3741180, “A Novel High Throughput Biochemical Assay to Evaluate the HuR Protein-RNA Complex Formation” (PLoS ONE, 2013).
The list shows a part of the results. Single values are uncertain here, since repeats match poorly. Peptide text beside a SMILES is read from it.

Chains of the proteins cited; added tags and fusions are not shown.
UniProt Q15717, whole entry: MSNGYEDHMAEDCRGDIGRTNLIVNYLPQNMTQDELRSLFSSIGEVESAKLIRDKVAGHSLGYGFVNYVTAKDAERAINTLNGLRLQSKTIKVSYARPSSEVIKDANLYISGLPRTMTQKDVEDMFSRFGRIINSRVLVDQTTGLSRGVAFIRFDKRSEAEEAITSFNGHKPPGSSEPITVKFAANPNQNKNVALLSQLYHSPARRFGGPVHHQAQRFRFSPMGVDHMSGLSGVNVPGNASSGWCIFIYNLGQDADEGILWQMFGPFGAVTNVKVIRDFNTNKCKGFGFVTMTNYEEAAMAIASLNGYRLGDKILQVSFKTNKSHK

What follows are compounds tested against HuR (ELAVL1) - TNFalpha ARE RNA complex (UniProt Q15717) (assay: AlphaScreen HuR-RNA complex signal Z-score relative to positive (Bi-TNF, DMSO) controls (Z-score (SD units of positive control)); higher = more complex signal). Conditions: screen stage: primary screen; compound concentration: 25 nM.

Row | Compound | AlphaScreen HuR-RNA complex signal Z-score
1 | c1ccc2c(CC3=NCCN3)cccc2c1 | 5.56
2 | CC(=O)OCC(=O)[C@@]12OC(C)(C)O[C@@H]1C[C@H]1[C@@H]3C[C@H](F)C4=CC(=O)C=C[C@]4(C)[C@@]3(F)[C@@H](O)C[C@@]12C | -2.25
3 | NC(=O)NCCC[C@H](N)C(=O)O | 1.96
4 | O=c1oc2c(O)c(O)cc3c(=O)oc4c(O)c(O)cc1c4c23 | 0.686
5 | O=C1NS(=O)(=O)c2ccccc21 | 1.45
6 | NS(=O)(=O)c1cc2c(cc1Cl)NC(C1CC3C=CC1C3)NS2(=O)=O (stereo not drawn) | 0.439
7 | CC(=O)CC(c1ccccc1)c1c(O)c2ccccc2oc1=O (stereo not drawn) | -1.35
8 | Oc1ccc([C@H]2Oc3cc(O)cc(O)c3C[C@H]2O)cc1 | 1.47
9 | COc1cccc2c1C(=O)c1c(O)c3c(c(O)c1C2=O)C[C@@](O)(C(C)=O)C[C@@H]3O[C@H]1C[C@H](N)[C@H](O)[C@H](C)O1 | -2.85
10 | O=C(O[C@@H]1Cc2c(O)cc(O)cc2O[C@@H]1c1cc(O)c(=O)c2c(O)c(O)cc([C@H]3Oc4cc(O)cc(O)c4C[C@H]3OC(=O)c3cc(O)c(O)c(O)c3)c2c1)c1cc(O)c(O)c(O)c1 | -0.397
11 | OCc1ccccc1O[C@@H]1O[C@H](CO)[C@@H](O)[C@H](O)[C@H]1O | 0.501
12 | CC(=O)NS(=O)(=O)c1ccc(N)cc1 | 11.6
13 | Nc1cc(N2CCCCC2)nc(N)[n+]1[O-] | 2.58
14 | CC1=C(/C=C/C(C)=C/C=C/C(C)=C/CO)C(C)(C)CCC1 | 1.15
15 | O=C(O)c1ccccc1OP(=O)(O)O | 0.635
16 | COC(=O)c1c(C)cc(OC(=O)c2c(C)cc(O)c(C=O)c2O)c(C)c1O | 2.39
17 | C/C=C(/C(=C/C)c1ccc(O)cc1)c1ccc(O)cc1 | -2.03
18 | Cc1ncc([N+](=O)[O-])n1CC(C)O (stereo not drawn) | 2.18
19 | COc1ccc([C@@H](C)C(=O)c2ccc(O)cc2O)cc1 | 1.46
20 | CC1(C)S[C@@H]2[C@H](NC(=O)[C@H](N)c3ccccc3)C(=O)N2[C@H]1C(=O)O | 0.315
21 | C=C[C@H]1CN2CC[C@H]1C[C@H]2[C@H](O)c1ccnc2ccc(OC)cc12 | 23.4
22 | O=C(/C=C/c1ccccc1)c1ccc(O[C@@H]2O[C@H](CO)[C@@H](O)[C@H](O)[C@H]2O)cc1O | 2.57

Row | Compound | AlphaScreen HuR-RNA complex signal Z-score
23 | O=c1n(CCCN2CCN(c3cccc(Cl)c3)CC2)nc2ccccn12 | 1.35
24 | CC1/C(=N/O)C[C@@H]2C[C@H]1C2(C)C (stereo partly drawn) | 1.61
25 | O=C(CCNNC(=O)c1ccncc1)NCc1ccccc1 | 3.56
26 | Cc1nc2ccccn2c(=O)c1CCN1CCC(C(=O)c2ccc(F)cc2)CC1 | 1.75
27 | CSc1nc2cc(Cl)c(Oc3cccc(Cl)c3Cl)cc2[nH]1 | 0.803
28 | NC(=O)c1cnccn1 | 9.97
29 | CC(=O)c1ccc[nH]1 | 1.26
30 | CC(=O)O[C@H]1C(=O)[C@@]2(C)[C@H]([C@H](OC(=O)c3ccccc3)[C@]3(O)C[C@H](OC(=O)[C@H](O)[C@@H](NC(=O)c4ccccc4)c4ccccc4)C(C)=C1C3(C)C)[C@]1(OC(C)=O)CO[C@@H]1C[C@@H]2O | 0.93
31 | COc1cccc2c1C(=O)c1c(O)c3c(c(O)c1C2=O)C[C@@](O)(C(=O)CO)C[C@@H]3O[C@H]1C[C@H](N)[C@@H](O)[C@H](C)O1 | 0.5
32 | COc1ccc2c(c1)CC[C@@H]1[C@@H]2CC[C@]2(C)[C@@H](O)CC[C@@H]12 | 0.993
33 | O[C@H]1[C@H](O)[C@@H](O)[C@H](O)[C@@H](O)[C@H]1O | -1.29
34 | C/C=C/c1ccc(OC)cc1 | 0.653
35 | C=C(C)[C@@H]1CC[C@]2(CO)CC[C@]3(C)[C@H](CC[C@@H]4[C@@]5(C)CC[C@H](O)C(C)(C)[C@@H]5CC[C@]43C)[C@@H]12 | 1.02
36 | Oc1cccc(O)c1 | -1.9
37 | Cc1cc(O)cc(C)c1Cl | -0.268
38 | CC(=O)N(c1onc(C)c1C)S(=O)(=O)c1ccc(N)cc1 | 0.209
39 | C=C1CCC(C2CC(=O)OC2=O)C(=O)CCC2C1CC2(C)C (stereo not drawn) | -0.303
40 | CC(N)CCCC(C)(C)O (stereo not drawn) | 3.15
41 | CN1CCCN=C1/C=C/c1cccc(O)c1 | 1.48
42 | CC(C)OC(=O)C(C)(C)Oc1ccc(C(=O)c2ccc(Cl)cc2)cc1 | 0.479
43 | CC=CC1=C(C(=O)O)N2C(=O)[C@@H](NC(=O)[C@H](N)c3ccc(O)cc3)[C@H]2SC1 | -1.34
44 | COC(=O)c1c(C)cc(OC)cc1O | 2.15

Row | Compound | AlphaScreen HuR-RNA complex signal Z-score
45 | O=C1c2ccccc2C(=O)C1c1ccc(Br)cc1 | 0.973
46 | CC1(C)C(O[C@@H]2OC[C@@H](O)[C@H](O)[C@H]2O)CC[C@]23CC24CC[C@]2(C)[C@@H]([C@@]5(C)CC[C@@H](C(C)(C)O)O5)[C@H](O)C[C@@]2(C)C4C[C@@H](O[C@@H]2O[C@H](CO)[C@@H](O)[C@H](O)[C@H]2O)C13 (stereo partly drawn) | -1.07
47 | CC(=O)Oc1cc(-c2coc3cc(OC(C)=O)c(OC(C)=O)c(OC(C)=O)c3c2=O)cc(OC(C)=O)c1OC(C)=O | 1.46
48 | c1coc(CNc2ncnc3[nH]cnc23)c1 | 0.101
49 | CCOc1ccc2nc(S(N)(=O)=O)sc2c1 | 0.542
50 | O=C(O)c1cc(/N=N/c2ccc(S(=O)(=O)Nc3ccccn3)cc2)ccc1O | 27.6
51 | CC(=O)O[C@@H]1C=C[C@]2(C)C(C[C@@H](OC(C)=O)[C@]3(C)C4=CC(=O)O[C@H](c5ccoc5)[C@@]4(C)CCC23)C1(C)C (stereo partly drawn) | 1.83
52 | C/C(=C\C(=O)OCCCCCCCCC(=O)O)C[C@@H]1OC[C@H](C[C@@H]2O[C@H]2[C@@H](C)[C@H](C)O)[C@@H](O)[C@H]1O | 1.39
53 | N[C@@H](CSCSC[C@H](N)C(=O)O)C(=O)O | -2.27
54 | CN/C(=N\CCSCc1nc[nH]c1C)NC#N | 0.115
55 | CCCCC/C=C/CCC(=O)N[C@H]1[C@H](Oc2c3cc4cc2Oc2ccc(cc2Cl)[C@@H](O[C@@H]2O[C@H](CO)[C@@H](O)[C@H](O)[C@H]2NC(C)=O)[C@@H]2NC(=O)[C@H](NC(=O)[C@@H]4NC(=O)[C@H]4NC(=O)C(Cc5ccc(c(Cl)c5)O3)NC(=O)[C@H](N)c3ccc(O)c(c3)Oc3cc(O)cc4c3)c3ccc(O)c(c3)-c3c(OC4O[C@H](CO)[C@@H](O)[C@H](O)[C@@H]4O)cc(O)cc3[C@@H](C(=O)O)NC2=O)O[C@H](CO)[C@@H](O)[C@@H]1O (stereo partly drawn) [TEICOPLANIN [A(2-1) shown]] | -1
56 | Cc1ccnc(NS(=O)(=O)c2ccc(N)cc2)n1 | 40.1
57 | NC(=O)OCC(COC(N)=O)c1ccccc1 | 1.09
58 | O=c1c(O)c(-c2ccccc2)oc2cccc(O)c12 | 0.929
59 | NCCCC(O)(P(=O)(O)O)P(=O)(O)O | 2.89
60 | CNC[C@H](O)[C@@H](O)[C@H](O)[C@H](O)CO | -2.97
61 | Nc1ccc(S(=O)(=O)Nc2cnc3ccccc3n2)cc1 | 0.871
62 | CCCCNc1cc(C(=O)O)cc(S(N)(=O)=O)c1Oc1ccccc1 | 1.65
63 | O=c1c(O)c(-c2ccc(O)cc2)oc2ccccc12 | 0.972
64 | CC(=O)Oc1ccccc1C(=O)Oc1ccccc1C(=O)O | 1.71
65 | CC(C)C[C@H](N)C(=O)N[C@@H](C)C(=O)O (H-Leu-Ala-OH) | 2.34
66 | CCOC(=O)c1c(C)cc(O)c(C=O)c1O | 1.39

Row | Compound | AlphaScreen HuR-RNA complex signal Z-score
67 | CCN(CC)CCOC(=O)c1ccc(N)cc1 | 3.85
68 | CC[C@H](C)C(=O)O[C@H]1C[C@@H](C)C=C2C=C[C@H](C)[C@H](CC[C@@H]3C[C@@H](O)CC(=O)O3)[C@H]21 | 1.46
69 | COc1cccc(-c2cc(=O)c3cc(OC)ccc3o2)c1 | 0.305
70 | COc1cc(C2Oc3cc([C@H]4Oc5cc(O)cc(O)c5C(=O)[C@@H]4O)ccc3OC2CO)ccc1O (stereo partly drawn) | 1.82
71 | O=c1cc(-c2ccccc2)oc2cc(O)c(O)c(O)c12 | 1.58
72 | CC(C)CCCC(C)N (stereo not drawn) | 3.91
73 | CC(=O)N[C@@H](CS)C(=O)O | 0.315
74 | CC(=O)O[C@H]1C[C@@]2(C)[C@@H](C[C@@H](O)[C@H]3[C@@]4(C)CC[C@@H](O)[C@@H](C)[C@@H]4CC[C@@]32C)/C1=C(\CCC=C(C)C)C(=O)O | -1.71
75 | OC(c1cc(C(F)(F)F)nc2c(C(F)(F)F)cccc12)C1CCCCN1 (stereo not drawn) | 0.602
76 | CNCCCC12CCC(c3ccccc31)c1ccccc12 | 6.21
77 | Cc1coc2c1C(=O)C(=O)c1c-2ccc2c1CCCC2(C)C | -0.752
78 | CCCCCC(=O)O[C@]1(C(C)=O)CC[C@H]2[C@@H]3CCC4=CC(=O)CC[C@]4(C)[C@H]3CC[C@@]21C | -0.995
79 | O=C(O[C@@H]1Cc2c(O)cc(O)cc2O[C@@H]1c1ccc(O)c(O)c1)c1cc(O)c(O)c(O)c1 | 1.75
80 | COc1ccc(C(=O)O)c(O)c1OC | 0.96
81 | CC(=O)O[C@H]1C[C@@H]2CC[C@@H]3[C@H](CC[C@@]4(C)[C@H]3C[C@H]([N+]3(C)CCCCC3)[C@@H]4OC(C)=O)[C@@]2(C)C[C@@H]1N1CCCCC1 | 1.1
82 | C[C@]12C=CC(=O)C=C1CC[C@H]1[C@@H]3C[C@@H](O)[C@](O)(C(=O)CO)[C@@]3(C)C[C@H](O)[C@@]12F | 2.96
83 | CC1(C)O[C@@H]2C[C@H]3[C@@H]4CCC5=CC(=O)CC[C@]5(C)[C@@]4(F)[C@@H](O)C[C@]3(C)[C@]2(C(=O)CCl)O1 | 1.57
84 | C[C@@H]1O[C@@H](OC[C@H]2O[C@@H](Oc3c(-c4ccc(OCCO)c(OCCO)c4)oc4cc(OCCO)cc(O)c4c3=O)[C@H](O)[C@@H](O)[C@@H]2O)[C@H](O)[C@H](O)[C@H]1O | 1.37
85 | CN1C(=O)OC(C)(C)C1=O | 2.41
86 | CC(=O)CCCCn1c(=O)c2c(ncn2C)n(C)c1=O | 0.627
87 | C=C1[C@@H]([C@@]2(C)C=CC(=O)C(C)(C)[C@@H]2CC(=O)OC)CC[C@@]2(C)[C@H](c3ccoc3)OC(=O)[C@H]3O[C@]132 | 1.66
88 | C[C@@H]1CC[C@@]2(OC1)O[C@H]1C[C@H]3[C@@H]4CC[C@H]5C[C@@H](O)CC[C@]5(C)[C@H]4CC(=O)[C@]3(C)[C@H]1[C@@H]2C | 1.16

A run of entries from the list above, for reference:
Row | Compound | AlphaScreen HuR-RNA complex signal Z-score
81 | CC(=O)O[C@H]1C[C@@H]2CC[C@@H]3[C@H](CC[C@@]4(C)[C@H]3C[C@H]([N+]3(C)CCCCC3)[C@@H]4OC(C)=O)[C@@]2(C)C[C@@H]1N1CCCCC1 | 1.1
82 | C[C@]12C=CC(=O)C=C1CC[C@H]1[C@@H]3C[C@@H](O)[C@](O)(C(=O)CO)[C@@]3(C)C[C@H](O)[C@@]12F | 2.96
83 | CC1(C)O[C@@H]2C[C@H]3[C@@H]4CCC5=CC(=O)CC[C@]5(C)[C@@]4(F)[C@@H](O)C[C@]3(C)[C@]2(C(=O)CCl)O1 | 1.57
84 | C[C@@H]1O[C@@H](OC[C@H]2O[C@@H](Oc3c(-c4ccc(OCCO)c(OCCO)c4)oc4cc(OCCO)cc(O)c4c3=O)[C@H](O)[C@@H](O)[C@@H]2O)[C@H](O)[C@H](O)[C@H]1O | 1.37
85 | CN1C(=O)OC(C)(C)C1=O | 2.41
